The list shows a part of the results.
Columns and labels:
Assay in all cases: glycan array binding signal (z-score within array); higher = stronger binding
Details in all cases: glycan notation: IUPAC condensed, linker removed
[1] = target: Gal(b1-3)[Fuc(a1-4)]GlcNAc(b1-6)GalNAc
Method in brief: (§1)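 The binding signal is a Z-score computed within each array. Data were drawn from 3228 arrays in the Consortium for Functional Glycomics database, restricted to those with a known protein sequence. Scores were averaged over arrays of the same protein sequence at different concentrations or buffers, and over linkers, and negative values can be taken as non-binding.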

[2] = target: Gal(b1-3)[GlcNAc(b1-6)]GalNAc
Method in brief: as §1

[3] = target: Gal(b1-3)[Neu5Ac(a2-6)]GalNAc
Method in brief: as §1

[4] = target: Gal(b1-3)[Neu5Ac(a2-6)]GlcNAc(b1-4)Gal(b1-4)Glc
Method in brief: as §1

[5] = target: Gal(b1-3)[Neu5Ac(b2-6)]GalNAc
Method in brief: as §1

[6] = target: Gal(b1-4)Gal
Method in brief: as §1

[7] = target: Gal(b1-4)GalNAc(a1-3)[Fuc(a1-2)]Gal(b1-4)GlcNAc
Method in brief: as §1

[8] = target: Gal(b1-4)GalNAc(b1-3)[Fuc(a1-2)]Gal(b1-4)GlcNAc
Method in brief: as §1

[9] = target: Gal(b1-4)Glc
Method in brief: as §1

[10] = target: Gal(b1-4)Glc6S
Method in brief: as §1

[11] = target: Gal(b1-4)GlcNAc
Method in brief: as §1

[12] = target: Gal(b1-4)GlcNAc(a1-6)Gal(b1-4)GlcNAc
Method in brief: as §1

[13] = target: Gal(b1-4)GlcNAc(b1-2)Man
Method in brief: as §1

[14] = target: Gal(b1-4)GlcNAc(b1-2)Man(a1-3)Man(b1-4)GlcNAc(b1-4)GlcNAc
Method in brief: as §1

[15] = target: Gal(b1-4)GlcNAc(b1-2)Man(a1-3)[Gal(b1-4)GlcNAc(b1-2)Man(a1-6)]Man(b1-4)GlcNAc(b1-4)GlcNAc
Method in brief: as §1

[16] = target: Gal(b1-4)GlcNAc(b1-2)Man(a1-3)[Gal(b1-4)GlcNAc(b1-2)Man(a1-6)]Man(b1-4)GlcNAc(b1-4)[Fuc(a1-6)]GlcNAc
Method in brief: as §1

[17] = target: Gal(b1-4)GlcNAc(b1-2)Man(a1-3)[Gal(b1-4)GlcNAc(b1-2)Man(a1-6)][Gal(b1-4)GlcNAc(b1-4)]Man(b1-4)GlcNAc(b1-4)[Fuc(a1-6)]GlcNAc
Method in brief: as §1

[18] = target: Gal(b1-4)GlcNAc(b1-2)Man(a1-3)[Gal(b1-4)GlcNAc(b1-2)Man(a1-6)][GlcNAc(b1-4)]Man(b1-4)GlcNAc(b1-4)[Fuc(a1-6)]GlcNAc
Method in brief: as §1

[19] = target: Gal(b1-4)GlcNAc(b1-2)Man(a1-3)[GlcNAc(b1-2)Man(a1-6)]Man(b1-4)GlcNAc(b1-4)GlcNAc
Method in brief: as §1

[20] = target: Gal(b1-4)GlcNAc(b1-2)Man(a1-3)[GlcNAc(b1-4)][Gal(b1-4)GlcNAc(b1-2)Man(a1-6)]Man(b1-4)GlcNAc(b1-4)GlcNAc
Method in brief: as §1

[21] = target: Gal(b1-4)GlcNAc(b1-2)Man(a1-3)[Man(a1-6)]Man(b1-4)GlcNAc(b1-4)GlcNAc
Method in brief: as §1

[22] = target: Gal(b1-4)GlcNAc(b1-2)Man(a1-6)Man(b1-4)GlcNAc(b1-4)GlcNAc
Method in brief: as §1

[23] = target: Gal(b1-4)GlcNAc(b1-2)Man(a1-6)[GlcNAc(b1-2)Man(a1-3)]Man(b1-4)GlcNAc(b1-4)GlcNAc
Method in brief: as §1

[24] = target: Gal(b1-4)GlcNAc(b1-2)Man(a1-6)[Man(a1-3)]Man(b1-4)GlcNAc(b1-4)GlcNAc
Method in brief: as §1

[25] = target: Gal(b1-4)GlcNAc(b1-2)[Gal(b1-4)GlcNAc(b1-4)]Man(a1-3)[Gal(b1-4)GlcNAc(b1-2)Man(a1-6)]Man(b1-4)GlcNAc(b1-4)GlcNAc
Method in brief: as §1

[26] = target: Gal(b1-4)GlcNAc(b1-2)[Gal(b1-4)GlcNAc(b1-4)]Man(a1-3)[Gal(b1-4)GlcNAc(b1-2)[Gal(b1-4)GlcNAc(b1-6)]Man(a1-6)]Man(b1-4)GlcNAc(b1-4)GlcNAc
Method in brief: as §1

[27] = target: Gal(b1-4)GlcNAc(b1-2)[Gal(b1-4)GlcNAc(b1-4)]Man(a1-3)[GlcNAc(b1-4)][Gal(b1-4)GlcNAc(b1-2)Man(a1-6)]Man(b1-4)GlcNAc(b1-4)GlcNAc
Method in brief: as §1

[28] = target: Gal(b1-4)GlcNAc(b1-2)[Gal(b1-4)GlcNAc(b1-4)]Man(a1-3)[GlcNAc(b1-4)][Gal(b1-4)GlcNAc(b1-2)[Gal(b1-4)GlcNAc(b1-6)]Man(a1-6)]Man(b1-4)GlcNAc(b1-4)GlcNAc
Method in brief: as §1

[29] = target: Gal(b1-4)GlcNAc(b1-2)[Gal(b1-4)GlcNAc(b1-6)]Man(a1-6)[Gal(b1-4)GlcNAc(b1-2)Man(a1-3)]Man(b1-4)GlcNAc(b1-4)GlcNAc
Method in brief: as §1

[30] = target: Gal(b1-4)GlcNAc(b1-2)[Gal(b1-4)GlcNAc(b1-6)]Man(a1-6)[Gal(b1-4)GlcNAc(b1-2)Man(a1-3)]Man(b1-4)GlcNAc(b1-4)[Fuc(a1-6)]GlcNAc
Method in brief: as §1

[31] = target: Gal(b1-4)GlcNAc(b1-2)[Gal(b1-4)GlcNAc(b1-6)]Man(a1-6)[GlcNAc(b1-4)][Gal(b1-4)GlcNAc(b1-2)Man(a1-3)]Man(b1-4)GlcNAc(b1-4)GlcNAc
Method in brief: as §1

[32] = target: Gal(b1-4)GlcNAc(b1-2)[Gal(b1-4)GlcNAc(b1-6)]Man(a1-6)[GlcNAc(b1-4)][Gal(b1-4)GlcNAc(b1-2)[Gal(b1-4)GlcNAc(b1-4)]Man(a1-3)]Man(b1-4)GlcNAc(b1-4)[Fuc(a1-6)]GlcNAc
Method in brief: as §1

[33] = target: Gal(b1-4)GlcNAc(b1-3)Gal(b1-3)GalNAc
Method in brief: as §1

[34] = target: Gal(b1-4)GlcNAc(b1-3)Gal(b1-3)GlcNAc
Method in brief: as §1

[35] = target: Gal(b1-4)GlcNAc(b1-3)Gal(b1-4)Glc
Method in brief: as §1

[36] = target: Gal(b1-4)GlcNAc(b1-3)Gal(b1-4)GlcNAc
Method in brief: as §1

[37] = target: Gal(b1-4)GlcNAc(b1-3)Gal(b1-4)GlcNAc(b1-2)Man(a1-3)[Gal(b1-4)GlcNAc(b1-3)Gal(b1-4)GlcNAc(b1-2)Man(a1-6)]Man(b1-4)GlcNAc(b1-4)GlcNAc
Method in brief: as §1

[38] = target: Gal(b1-4)GlcNAc(b1-3)Gal(b1-4)GlcNAc(b1-2)Man(a1-3)[Gal(b1-4)GlcNAc(b1-3)Gal(b1-4)GlcNAc(b1-2)Man(a1-6)]Man(b1-4)GlcNAc(b1-4)[Fuc(a1-6)]GlcNAc
Method in brief: as §1

B1: SJCP1084 (Schistosoma japonicum) (protein)
chain: MRIINLVIISTALLLINLLQTKSQANGEDTKNGTPDDPGLTKSTELKVEVQALLKDKKTNMRVKWNENLLDNTKPEYHNLRDEACELLLQIVRSVVPLSQDDGECKDVTFTKYVVGTKDGAVNVKLTITFKDSVAINQKPMDLKLKLENDFKNLQSESTLKATKPTFTVKVEKRLIPISKPQTTPPTTAKNDASKENVGDIGGEDSTVPTAAPATAASANEEKDEGDKDNKDSQHPNVLTSNVNDRNLIIALVALMILAIGVALTAAVKQR
glycan array binding signal (z-score) [1]: -0.381
glycan array binding signal (z-score) [2]: -0.42
glycan array binding signal (z-score) [3]: -0.582
glycan array binding signal (z-score) [4]: 0.43
glycan array binding signal (z-score) [5]: -1.04
glycan array binding signal (z-score) [6]: -0.075
glycan array binding signal (z-score) [7]: -0.495
glycan array binding signal (z-score) [8]: -0.48
glycan array binding signal (z-score) [9]: -0.653
glycan array binding signal (z-score) [10]: 0.127
glycan array binding signal (z-score) [11]: -0.069
glycan array binding signal (z-score) [12]: -0.963
glycan array binding signal (z-score) [13]: -0.655
glycan array binding signal (z-score) [14]: -0.007
glycan array binding signal (z-score) [15]: 0.231
glycan array binding signal (z-score) [16]: 0.514
glycan array binding signal (z-score) [17]: 0.041
glycan array binding signal (z-score) [18]: -1.17
glycan array binding signal (z-score) [19]: -0.705
glycan array binding signal (z-score) [20]: -0.984
glycan array binding signal (z-score) [21]: -0.163
glycan array binding signal (z-score) [22]: 0.055
glycan array binding signal (z-score) [23]: 0.284
glycan array binding signal (z-score) [24]: 0.64
glycan array binding signal (z-score) [25]: 0.482
glycan array binding signal (z-score) [26]: -0.436
glycan array binding signal (z-score) [27]: -1.12
glycan array binding signal (z-score) [28]: 0.608
glycan array binding signal (z-score) [29]: 1.06
glycan array binding signal (z-score) [30]: 2.77
glycan array binding signal (z-score) [31]: -0.924
glycan array binding signal (z-score) [32]: 1.23
glycan array binding signal (z-score) [33]: 0.508
glycan array binding signal (z-score) [34]: 0.475
glycan array binding signal (z-score) [35]: 0.943
glycan array binding signal (z-score) [36]: -1.54
glycan array binding signal (z-score) [37]: 1.6
glycan array binding signal (z-score) [38]: 4.14

From the supplement of paper PMC8728848
